Measurements: PubChem BioAssay AID2685 (National Center for Advancing Translational Sciences (NCATS), 2010)
The list shows a part of the results. Further columns of the screen follow, without active or inactive calls. The list favours compounds with an active or inconclusive main result. Words in brackets tell the shape of the fitted curve; partial curves, single points and poor fits give uncertain potencies.

Assay: qHTS Assay for Lipid Storage Modulators in Drosophila S3 Cells;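 as to cell number change: cells counted by Cell Tracker Red CMTPX staining in the red channel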
Details: BODIPY lipid droplet fluorescence, 18-24 h; for cell number change: measured here: cell count max response, cells fed with added oleic acid
Summary of the method: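 Drosophila S3 cells loaded with oleic acid (400 uM, as added) and compounds at several concentrations; lipid droplets imaged by 488-nm laser-scanning cytometry, 500–530 nm intensity and object ratio to cell channel. Percent activity normalized to 20 uM Triacsin C.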

[1] = measured here: cell number channel AC50, cells fed with added oleic acid
[2] = measured here: lipid fluorescence (Fed channel) AC50, cells fed with added oleic acid

| SMILES | cell number change [%] | AC50 [1] | AC50 [2] |
| --- | --- | --- | --- |
| c1ccc(CC2=NCCN2)cc1 | -5.94 | 0.00517 µM [falling, full curve, poor fit] | 20.6 µM [falling, partial curve] |
| NCCCCC(=O)O | -24 |  | 23.1 µM [falling, single point] |
| CS(=O)(=O)C1=C(O)C(=O)N(c2ccccc2)C1c1ccccc1 (stereo unspecified) | -21 | 0.092 µM [falling, full curve] | 1.46 µM [falling, full curve] |
| CC(=O)Nc1nc(-c2ccc3c(c2)CC(C)N3C(=O)C2CC2)c(C)s1 (stereo unspecified) | 6.58 |  | 35.5 µM [falling, single point] |
| COc1ccc(NC2CS(=O)(=O)CC2OC(=O)c2ccc(F)cc2)cc1 (stereo unspecified) | 2.61 |  | 0.00517 µM [falling, full curve, poor fit] |
| O=C(Nc1ccc(C(=O)NC2CCCCC2)cc1)c1cccnc1 | -4.49 |  |  |
| Nc1nc(SCc2ccccc2)c2[nH]cnc2n1 | 29.6 |  | 29.1 µM [rising, partial curve, poor fit] |
| Cc1ccc(C(=O)Nc2ccc(N3CCOCC3)cc2N2CCOCC2)cc1 | -48 | 11.6 µM [falling, partial curve, poor fit] | 11.6 µM [falling, single point] |
| Cc1ccccc1C(=O)N1CCCC(CCC(=O)N2CCN(c3ccccn3)CC2)C1 (stereo unspecified) | -18 |  | 0.00461 µM [falling, full curve, poor fit] |
| Cc1cccc(OCC(=O)NCCNC(=O)c2cnccn2)c1 | 14.5 |  | 35.5 µM [rising, single point] |
| Cc1cc(NC(=O)CCCN2C(=O)c3cccnc3C2=O)ccc1Br | -16 |  | 20.6 µM [falling, partial curve] |
| CCOc1cc(C(=S)N2CCCC2)ccc1O | 39.5 | 29.1 µM [rising, single point] | 29.1 µM [rising, single point] |
| COc1ccc(C2CC2C(C)=O)cc1 (stereo unspecified) | -33.4 | 0.461 µM [falling, full curve, poor fit] |  |
| Cc1c(Br)cnn1C(C)C(=O)N1CCN(c2ccccc2F)CC1 (stereo unspecified) | -49 | 29.1 µM [falling, single point] | 3.26 µM [rising, single point] |
| CCOc1ccc2ncc(S(=O)(=O)c3ccccc3)c(N3CCN(c4ccc(OC)cc4)CC3)c2c1 | 0.0784 |  |  |
| COc1cc(/C=N/NC(=O)c2ccc(CSc3nncn3C)cc2)ccc1OCC(=O)N1CC(C)OC(C)C1 (stereo unspecified) | 8.42 |  | 0.116 µM [falling, full curve] |
| COc1cc(NS(=O)(=O)c2ccc(NC(=O)c3ccc(F)cc3)cc2)ncn1 | -17.9 |  | 0.116 µM [rising, full curve, poor fit] |
| CCOc1ccccc1C(=O)OC(C)C(=O)Nc1ccc(S(=O)(=O)N2CCCC2)cc1 (stereo unspecified) | 6.83 |  | 16.4 µM [falling, partial curve, poor fit] |
| CS(=O)(=O)Nc1ccc(C(=O)NCCSC2CCCCC2)cc1 | 19.3 |  | 4.61 µM [rising, single point] |
| O=C(Cc1ccc2c(c1)OCCO2)N1CCN(c2ccccc2)CC1 | -9.28 | 0.00461 µM [falling, full curve, poor fit] |  |

| SMILES | cell number change [%] | AC50 [1] | AC50 [2] |
| --- | --- | --- | --- |
| CSc1nc(-c2ccco2)nn1C(=O)CCc1ccccc1 | -4.21 |  |  |
| Cc1cccc(Nc2nc(-c3cccs3)cs2)n1 | -26 |  |  |
| CCc1ccc(CN(C)C(=O)CCc2nnc(CCc3cccc(OC)c3)o2)nc1 | -8.83 |  |  |
| Cc1cc(S(=O)(=O)ON2C(=O)c3ccccc3C2=O)ccc1F | -6.57 |  |  |
| COc1ccccc1OCc1nnc(SCCN2CCOCC2)o1 | 33.5 | 4.11 µM [rising, full curve, poor fit] | 3.26 µM [rising, single point] |
| CC(C)Oc1ccc(C(=O)NCc2cccs2)cc1 | 38.3 | 6.51 µM [rising, partial curve] |  |
| Cc1cc2oc(=O)cc(CN3CCN(C/C=C/c4ccccc4)CC3)c2cc1O | -11.1 |  | 32.6 µM [falling, partial curve, poor fit] |
| CCN(CC(=O)NC1CC1)S(=O)(=O)c1ccc(OC)cc1 | -17.6 |  | 29.1 µM [rising, single point] |
| Nc1cc(-c2ccccc2)nn1S(=O)(=O)c1ccc(F)cc1 | -31.3 | 0.00651 µM [falling, full curve, poor fit] | 32.6 µM [falling, single point] |
| COc1cccc2c1C(=O)C[C@]1(CCCC[C@@H]1C)O2 | 0.132 |  |  |
| CCOC(=O)c1sc(NCc2ccco2)c(-c2nc3ccccc3s2)c1N | -17.3 |  | 0.731 µM [rising, single point] |
| O=C1C(=O)N(CCCn2ccnc2)C(c2ccc(Br)cc2)/C1=C(\O)c1ccc2c(c1)OCCO2 (stereo unspecified) | 2.7 |  |  |
| O=C(Cn1c(=O)c2c(ncn2C2CCCC2)n(Cc2ccccc2)c1=O)N1CCc2ccccc21 | -14.1 |  | 0.092 µM [rising, full curve, poor fit] |
| O=C(COc1cc2oc(=O)c3c(c2cc1Cl)CCC3)NCCCN1CCOCC1 | 3.12 |  | 0.651 µM [rising, full curve] |
| COC(=O)c1c(NC(=O)C(=O)N2CCOCC2)sc2c1CCCC2 | -0.472 |  | 0.58 µM [rising, single point] |
| COc1cc(CNCc2cccnc2)ccc1OCC(=O)NC(C)(C)C | 8.26 |  | 10.3 µM [rising, single point] |
| COc1ccc2nc(N3C(=O)/C(=C/c4ccccc4)NC3=S)sc2c1 |  | 23.1 µM [rising, partial curve] |  |
| O=C(CSc1nncs1)Nc1cccc2ccccc12 |  | 0.461 µM [rising, partial curve] | 1.46 µM [rising, partial curve, poor fit] |
| Oc1c(Br)cc(Cl)cc1C=Nc1ccc(N2CCOCC2)cc1 |  |  | 2.31 µM [rising, partial curve, poor fit] |
| COc1cccc(C(=O)N/N=C/c2ccc(OC3CSC3)cc2)c1 | 35.7 | 4.61 µM [rising, partial curve] | 6.51 µM [rising, single point] |

Part of the list above, bar-delimited:
SMILES | cell number change [%] | AC50 [1] | AC50 [2]
COc1ccc2nc(N3C(=O)/C(=C/c4ccccc4)NC3=S)sc2c1 |  | 23.1 µM [rising, partial curve] | 
O=C(CSc1nncs1)Nc1cccc2ccccc12 |  | 0.461 µM [rising, partial curve] | 1.46 µM [rising, partial curve, poor fit]
Oc1c(Br)cc(Cl)cc1C=Nc1ccc(N2CCOCC2)cc1 |  |  | 2.31 µM [rising, partial curve, poor fit]
COc1cccc(C(=O)N/N=C/c2ccc(OC3CSC3)cc2)c1 | 35.7 | 4.61 µM [rising, partial curve] | 6.51 µM [rising, single point]

Going on with the list.

| SMILES | cell number change [%] | AC50 [1] | AC50 [2] |
| --- | --- | --- | --- |
| CC(=O)c1ccc(N2CCN(C(=O)C3CCCN(c4ncnc5c4nc4n5CCCCC4)C3)CC2)cc1 (stereo unspecified) | 16.8 |  | 0.58 µM [rising, single point] |
| Cc1ccnc(N2CCC(C(=O)Nc3ccc4c(c3)CCC4)CC2)n1 | -13.8 |  | 1.03 µM [rising, full curve, poor fit] |
| Cc1c(C)n(Cc2ccccc2)c2ncnc(NCCN(C)C)c12 | 24.4 |  | 16.4 µM [rising, partial curve, poor fit] |
| COc1ccc(NC(=O)c2ccccc2Cl)c(NC(=O)c2ccco2)c1 | 5.65 |  |  |
| O=C(c1ccc(N2CCCC2=O)cc1)N1CCN(c2ccccc2Cl)CC1 | 0.82 |  | 25.9 µM [rising, single point] |
| CCc1nc(Nc2ccccc2)c2nnn(Cc3ccccc3)c2n1 | -32 | 20.6 µM [falling, partial curve, poor fit] |  |
| COc1ccc(Cl)cc1C(=O)NCCCn1ccnc1 | 8.41 | 6.51 µM [rising, single point] |  |
| CCOC(=O)c1c(C)[nH]c(C(=O)OCCOc2ccc(Cl)cc2)c1C | -35.3 | 8.2 µM [falling, partial curve, poor fit] | 25.9 µM [falling, single point] |
| CCCC(=O)N(CCc1ccccc1)Cc1nc2ccccc2c(=O)[nH]1 |  |  | 14.6 µM [rising, single point] |
| COc1cc(C(c2c(O)cc(C)[nH]c2=O)c2c(O)cc(C)[nH]c2=O)ccc1O |  |  | 0.58 µM [rising, single point] |
| COc1ccc(N(CC(=O)NCCc2ccccc2)C(=O)CCC(=O)Nc2ccccn2)cc1 | 4.62 |  |  |
| CCOC(=O)C1=C(O)/C(=C/c2cc(OC)c(OC)c(OC)c2)SC1=Nc1ccc(OC)cc1 | 1.01 |  |  |
| Cc1ccc(N(CC2CO2)S(=O)(=O)c2ccc(C)cc2)cc1 (stereo unspecified) | -22.2 |  | 14.6 µM [falling, partial curve, poor fit] |
| Cc1ccc(CN=c2c([N+](=O)[O-])nn(-c3ccc4c(c3)OCCO4)n2O)cc1 | -34.7 | 29.1 µM [falling, partial curve, poor fit] | 0.0291 µM [falling, full curve, poor fit] |
| O=C(O)CCc1ccc(-c2ccccc2)n1CC(=O)O | -33.4 |  | 29.1 µM [falling, single point] |
| Cc1cccc(NC(=O)CCS(=O)(=O)c2cccc3nsnc23)c1C | -12.4 |  | 29.1 µM [falling, single point] |
| O=C(/C=C/c1ccc(F)cc1)NC(=S)NNC(=O)[C@H]1C[C@@H]1c1ccccc1 | 25.7 |  | 20.6 µM [rising, partial curve] |
| CCOC(=O)C1CCN(S(=O)(=O)c2ccc3[nH]c4c(c3c2)CCCC4)CC1 | -25 |  | 29.1 µM [falling, single point] |
| COc1cccc(CN(C)CC(=O)NNC(=O)c2ccc(Cl)cc2)c1 | 14.1 |  | 20.6 µM [rising, single point] |
| Cc1ccc(C2OCC3(CO2)COC(c2ccc(C)cc2)OC3)cc1 (stereo unspecified) | 2.79 | 6.51 µM [falling, single point] | 6.51 µM [falling, single point] |
